# Results deposited as PubChem BioAssay AID1224826 (NIAID, 2016)
# Screen: 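Regulators of Tlr4 signalling leading to Tnf-alpha expression in macrophages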 (primary screen)
# Cell system: RAW264.7 G9 macrophages from mouse bearing reporters for p65 (GFP) and the Tnf promoter (mCherry)
# Reagent: siRNA pool against mouse genes, 100 nM
# Time to read-out: 16 h of LPS stimulation, after 2 days of siRNA transfection
# Treatment: bacterial lipopolysaccharide (Salmonella minnesota R595), 10 ng/ml
# Measured: 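Nuclear mCherry signal of the Tnf promoter reporter measured by imaging after background removal, scaled to each plate median and turned into robust z-scores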
# Direction: Tnf reporter robust z-score: higher = stronger Tnf promoter reporter signal after LPS; Tnf reporter intensity: higher = stronger Tnf promoter reporter signal
# Active means: 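a well counts as active at a score of -1.3 or below (Tlr4 knock-down control median) or above 3 (raised signal); controls and wells holding fewer than 50 cells are excluded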
# Calls: active = Tnf reporter clearly lowered or raised; inactive = no clear change in Tnf reporter
# This is a random part of about 17,000 deposited reagents. About 1,110 of all reagents (6.6%) count as active. 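Active means lowered or raised reporter signal; replicate intensities are raw and not normalised per plate.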 Entries without a mark were called inactive. The numbers tell different reagents against one gene apart.
gene symbol,reagent,Tnf reporter robust z-score,fewer than 50 cells in well,"Tnf reporter intensity, replicate 1","Tnf reporter intensity, replicate 2"
Slc39a10,1,,fewer than 50 cells per well; well left out of calls,84.1,55
"Zfp36l1 (zinc finger protein 36, C3H type-like 1)",1,-0.59,enough cells in well,197,170
2900026A02Rik (RIKEN cDNA 2900026A02 gene),1,,fewer than 50 cells per well; well left out of calls,144,79.4
Dpp7 (dipeptidylpeptidase 7),1,-0.46,enough cells in well,162,95
"H2-Q5 (histocompatibility 2, Q region locus 5)",1,-0.01,enough cells in well,287,135
"Parva (parvin, alpha)",1,1.5,enough cells in well,312,314
Babam1 (BRISC and BRCA1 A complex member 1),1,,fewer than 50 cells per well; well left out of calls,97.3,84.9
Tcp11l2 (t-complex 11 (mouse) like 2),1,-1.48 (active),enough cells in well,98,30.6
Hoxaas2 (Hoxa cluster antisense RNA 2),1,0.74,enough cells in well,235,188
Nap1l4 (nucleosome assembly protein 1-like 4),1,0.04,enough cells in well,136,159
Cpsf3 (cleavage and polyadenylation specificity factor 3),1,-0.43,enough cells in well,138,171
Gpr176 (G protein-coupled receptor 176),1,-0.18,enough cells in well,184,310
Ogt,1,-1.48 (active),enough cells in well,127,86.4
Slc22a15,1,0.88,enough cells in well,259,90.2
"Psmb2 (proteasome (prosome, macropain) subunit, beta type 2)",1,,fewer than 50 cells per well; well left out of calls,94,311
"H2-Oa (histocompatibility 2, O region alpha locus)",1,-0.39,enough cells in well,186,181
Galm (galactose mutarotase),1,0.64,enough cells in well,355,130
C230029D21Rik (retired record),1,,fewer than 50 cells per well; well left out of calls,77.4,69.2
"Pdk3 (pyruvate dehydrogenase kinase, isoenzyme 3)",1,-1.47 (active),enough cells in well,86.7,92

In a second layout: entries from further up.
| gene symbol | reagent | Tnf reporter robust z-score | fewer than 50 cells in well | Tnf reporter intensity, replicate 1 | Tnf reporter intensity, replicate 2 |
| --- | --- | --- | --- | --- | --- |
| Dpp7 (dipeptidylpeptidase 7) | 1 | -0.46 | enough cells in well | 162 | 95 |
| H2-Q5 (histocompatibility 2, Q region locus 5) | 1 | -0.01 | enough cells in well | 287 | 135 |
| Parva (parvin, alpha) | 1 | 1.5 | enough cells in well | 312 | 314 |
| Babam1 (BRISC and BRCA1 A complex member 1) | 1 | – | fewer than 50 cells per well; well left out of calls | 97.3 | 84.9 |
| Tcp11l2 (t-complex 11 (mouse) like 2) | 1 | -1.48 (active) | enough cells in well | 98 | 30.6 |
| Hoxaas2 (Hoxa cluster antisense RNA 2) | 1 | 0.74 | enough cells in well | 235 | 188 |

More reagents follow.
gene symbol,reagent,Tnf reporter robust z-score,fewer than 50 cells in well,"Tnf reporter intensity, replicate 1","Tnf reporter intensity, replicate 2"
Slc29a1,1,-0.31,enough cells in well,66.2,89.6
Rims4 (regulating synaptic membrane exocytosis 4),1,-0.48,enough cells in well,113,101
Fbxo4 (F-box protein 4),1,,fewer than 50 cells per well; well left out of calls,100,61.6
Fbxo4 (F-box protein 4),2,0.15,enough cells in well,234,249
"Pcdhga11 (protocadherin gamma subfamily A, 11)",1,2.47,enough cells in well,250,263
Traip (TRAF-interacting protein),1,-0.14,enough cells in well,198,244
Cap2 (cyclase associated actin cytoskeleton regulatory protein 2),1,-0.17,enough cells in well,172,143
Ecpas (Ecm29 proteasome adaptor and scaffold),1,-1.14,enough cells in well,112,129
Ccdc127 (coiled-coil domain containing 127),1,0.6,enough cells in well,378,75.4
"Tnnc2 (troponin C2, fast)",1,0.5,enough cells in well,260,164
Gfra2,1,0.77,enough cells in well,278,172
"Chrne (cholinergic receptor, nicotinic, epsilon polypeptide)",1,-0.4,enough cells in well,236,158
Thrap3 (thyroid hormone receptor associated protein 3),1,2.99,enough cells in well,462,273
Mcm10 (minichromosome maintenance 10 replication initiation factor),1,-1.15,enough cells in well,171,43.9
Lcn5 (lipocalin 5),1,2.38,enough cells in well,350,234
Itga8 (integrin alpha 8),1,-0.11,enough cells in well,231,145
"Zmynd10 (zinc finger, MYND domain containing 10)",1,-0.79,enough cells in well,0,92
"Tcf7l1 (transcription factor 7 like 1 (T cell specific, HMG box))",1,-1.81 (active),enough cells in well,95.9,57.8
Zfp300 (zinc finger protein 300),1,-1.21,enough cells in well,109,86.3
Rp1 (retinitis pigmentosa 1 (human)),1,0.08,enough cells in well,338,197
Nans (N-acetylneuraminic acid synthase (sialic acid synthase)),1,0.41,enough cells in well,246,80.7
"Klra3 (killer cell lectin-like receptor, subfamily A, member 3)",1,0.27,enough cells in well,270,157
Or1ab2 (olfactory receptor family 1 subfamily AB member 2),1,-0.24,enough cells in well,136,132
Nipbl (NIPBL cohesin loading factor),1,1.56,enough cells in well,261,75.4
Nipbl (NIPBL cohesin loading factor),2,,fewer than 50 cells per well; well left out of calls,248,228
Il1a (interleukin 1 alpha),1,1.27,enough cells in well,312,237
Figla (folliculogenesis specific basic helix-loop-helix),1,-0.79,enough cells in well,164,112
Acat1 (acetyl-Coenzyme A acetyltransferase 1),1,0.04,enough cells in well,190,150
Casq1 (calsequestrin 1),1,-0.6,enough cells in well,108,140
Mcts2 (malignant T cell amplified sequence 2),1,,fewer than 50 cells per well; well left out of calls,235,67.4
Cdca4 (cell division cycle associated 4),1,0.23,enough cells in well,255,233
"Csnk1d (casein kinase 1, delta)",1,1.37,enough cells in well,287,148
Vps33b (vacuolar protein sorting 33B),1,-0.75,enough cells in well,83.8,70.9
Psg19 (pregnancy specific beta-1-glycoprotein 19),1,,fewer than 50 cells per well; well left out of calls,43.3,45
Zfp654 (zinc finger protein 654),1,-1.44 (active),enough cells in well,150,36.1
Fastkd1 (FAST kinase domains 1),1,0.37,enough cells in well,215,150
Gar1 (GAR1 ribonucleoprotein),1,-0.84,enough cells in well,167,80.7
Trim3 (tripartite motif-containing 3),1,,fewer than 50 cells per well; well left out of calls,190,176
Zfp384 (zinc finger protein 384),1,-0.29,enough cells in well,102,146
